{
  "source": "patent US20160208249A1",
  "about": "“Compositions and Methods for Inducing Senescence in Cancer Cells” (INSERM (Institut National de la Sante et de la Recherche …, priority 2013, published 2016)",
  "system": "EZH2",
  "assay": "qRT-PCR analysis of EZH2 mRNA in A375 cells",
  "assay_type": "cell-based, human",
  "conditions": "A375 cells transfected with 200 nM TFD, 4 days",
  "method": "Transfection experiments with Small interfering RNAs (siRNAs): Typically 30 000 to 50 000 cells were plated in 6-well culture plates and transfected 24 hours later with 25 nM or 50 nM siRNAs using Lipofectamine RNAimax (Invitrogen) according to manufacturer protocol. If not otherwise described cells were incubated with the si-RNA for 4 days prior harvesting for further experiments. […] As non specific control, a scramble sequence siRNA was used (cat. 16106, Ambion, Life Technologies, Grand Island, N.Y.).\nQuantitative RT-PCR analysis: Total RNA was isolated from cells using RNAeasy minikit (Qiagen) according to manufacturer's procedure. Reverse transcription was performed using AMV reverse transcription system (Promega) while quantitative PCR was performed with Power Sybr green (Applied biosystem, Life Technologies, Grand Island, N.Y.) following manufacturer instructions (List of primers are available in supplementary information). PCR reaction was carried on a Step One plus Real-Time PCR system (Applied Biosystems). All analyses were done in triplicate and melting curve analysis was performed to control for product quality and specificity. Expression levels were calculated using the comparative method of relative quantification, with SB34 as normalizer. Data were analyzed for their statistical significance applying Student's t-test. […]",
  "note": "Some entries share one result that the patent states for a list of compounds.",
  "data": [
    {"substance": "TFD1: p52 decoy, double stranded DNA ODN: forward ATCGGGTCTCC (SEQ ID NO: 6), reverse GGAGAGCCCGAT (SEQ ID NO: 7) (DNA, backbone and methylation of C not given here)", "values": [
      {"measurement": "reduction of mRNA level of EZH2", "value": "more than 50%"}
    ]},
    {"substance": "TFD4: p52 decoy, double stranded DNA ODN: forward ATCGGGGCTCACC (SEQ ID NO: 8), reverse GGTGAGCCCCGAT (SEQ ID NO: 9) (DNA, backbone and methylation of C not given here)", "values": [
      {"measurement": "reduction of mRNA level of EZH2", "value": "more than 50%"}
    ]}
  ]
}
